This is one part of the list. These are further read-outs of the screen, such as a control signal, another cell line or another target. No call is given for them. Most of these compounds were active or inconclusive in the main read-out, so they are no random draw. Potencies come from curve fits of mixed quality, noted in brackets.
Test: qHTS Assay to Find Inhibitors of Chronic Active B-Cell Receptor Signaling
Conditions: ABC-DLBCL IkBa-CBG/CBR reporter, luminescence ratio (green luciferase fused to IkBa over red control in TMD8 lymphoma cells), 4 h; measured here: CBR red luminescence, cell number
How it was run: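 Doxycycline induced both beetle luciferases in TMD8 lymphoma cells; IKK-driven degradation limits the IkappaBalpha-fused green signal, while red luminescence normalises for cell number and nonspecific effects. Compounds tested up to 46 uM, 4 hrs.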

Row | Structure (SMILES) | AC50
1 | CCOC(=O)c1ccc(NC(=O)c2nc[nH]c2C(=O)NC)cc1 | 3.55 µM [rising, full curve, poor fit]
2 | Cc1cc(C)cc(N(CC(=O)NC2CCCCC2)C(=O)CCCC(=O)Nc2ccccn2)c1 | 11.2 µM [falling, single point]
3 | Cc1ccsc1C(=O)NN=C1CCCCCC1 | 2 µM [falling, full curve]
4 | Cc1ccc(C2=NN3C(C2)c2ccccc2OC32C(=O)Nc3ccccc32)cc1 (stereo unspecified) | 3.98 µM [falling, partial curve, poor fit]
5 | COc1ccc(Cl)cc1NC(=O)COc1ccc2c(c1)OCO2 | 0.92 µM [rising, partial curve, poor fit]
6 | COCCOc1nc2c(c(=O)n(C)c(=O)n2C)n1CCc1ccccc1 | 1 µM [falling, partial curve, poor fit]
7 | COc1ccc(C(=O)Nn2c(SCC(=O)c3ccc(Cl)cc3)nc3ccccc3c2=O)cc1 | 2.24 µM [falling, full curve]
8 | Cc1ccc(Cl)cc1N1CCN(C(=O)c2ccc3c(c2)CCN3S(C)(=O)=O)CC1 | 35.5 µM [falling, single point]
9 | O=C(O)Cc1ccc(NC(=O)c2ccc3c(c2)C(=O)N(Cc2ccco2)C3=O)cc1 | 12.6 µM [falling, single point]
10 | CC(C)(C)c1cc(CCC(=O)N2CCNCC2)c(C(C)(C)C)cc1O | 0.411 µM [falling, full curve, poor fit]
11 | COc1ccc(NC(=O)CSCC(=O)Nc2cc(Cl)ccc2N2CCCC2)cc1 | 35.5 µM [falling, single point]
12 | CC1c2[nH]c3ccccc3c2CCN1C(=O)Nc1ccccc1 (stereo unspecified) | 20.6 µM [falling, single point]
13 | Cc1onc(-c2ccccc2)c1C(=O)N/N=C/c1cc(Br)c(Br)o1 | 20.6 µM [falling, single point]
14 | O=C(NCc1ccccc1)c1ccc(CN(c2ccccn2)S(=O)(=O)c2ccccc2)cc1 | 0.501 µM [falling, full curve]
15 | Cc1onc(-c2ccc(Cl)cc2Cl)c1-c1csc(N/N=C/c2ccccc2)n1 | 0.708 µM [falling, full curve, poor fit]
16 | CCCNC(=O)c1ccc2c(c1)ncn2-c1ccc(C)cc1C | 7.94 µM [rising, partial curve, poor fit]
17 | COC(=O)c1cc2c(=O)n3ccccc3nc2n(C)c1=N | 35.5 µM [falling, single point]
18 | CCOC(=O)c1c(NC(=O)CS(=O)(=O)c2ccc(C)cc2)sc2c1CCCCC2 | 22.4 µM [rising, single point]
19 | COc1ccc(N2C(N)=C(C#N)C(c3ccsc3)C3=C2CCCC3=O)c(OC)c1 (stereo unspecified) | 9.2 µM [rising, partial curve, poor fit]
20 | O=C(CNC(=O)c1ccccc1)NCC(=O)OCc1ccccc1Cl | 15.8 µM [rising, single point]
21 | Cn1c(NNC(=O)CCC2CCCCC2)cc(=O)n(C)c1=O | 29.1 µM [falling, single point]

Row | Structure (SMILES) | AC50
22 | COc1ccc(-c2cc(C)no2)cc1S(=O)(=O)N1CCCN(Cc2ccccc2Cl)C1 | 35.5 µM [falling, single point]
23 | COc1ccc(NC(=O)CSc2nc3c(c(=O)n2-c2ccc(C)cc2)SCC3)c(OC)c1 | 0.13 µM [rising, full curve, poor fit]
24 | CC1CCN(c2nc3ccc(C(=O)N4CCN(Cc5ccccc5)CC4)cc3s2)CC1 | 29.1 µM [falling, single point]
25 | CCN(CC(=O)Nc1ccc2c(c1)OCCO2)S(=O)(=O)c1cccs1 | 0.58 µM [falling, full curve, poor fit]
26 | CCN(CC)S(=O)(=O)c1ccc(S(=O)(=O)N2CCN(C(=O)c3ccco3)CC2)cc1 | 16.4 µM [rising, single point]
27 | S=C(NCc1ccco1)Nc1ccc(Oc2ccccc2)cc1 | 2 µM [rising, partial curve, poor fit]
28 | COc1ccc(C(=O)Nc2ccc(C(=O)N3CCCC3)cc2)cc1[N+](=O)[O-] | 4.47 µM [falling, full curve, poor fit]
29 | COc1ccc(/C=C/C(=O)Nc2c(C(=O)O)[nH]c3ccccc23)cc1OC | 14.1 µM [falling, single point]
30 | COc1cccc(Nc2nc(-c3cccnc3)cs2)c1 | 35.5 µM [falling, single point]
31 | C#CCSc1nc(C)cc(C(=O)OCC)c1C#N | 10 µM [rising, partial curve, poor fit]
32 | Cc1ccc(Cn2nnc3c(=O)n(CC(=O)OCc4ccccc4)cnc32)cc1 | 23.1 µM [falling, single point]
33 | N#Cc1c(NC(=O)C2CC(Cl)=CCC2C(=O)O)sc2c1CCCC2 (stereo unspecified) | 25.1 µM [falling, single point]
34 | COc1cccc(/C=N\NC(=O)c2ccc(Cn3cc(Br)c([N+](=O)[O-])n3)o2)c1O | 2.82 µM [falling, full curve]
35 | N#CC1=C(N)N(c2ccc(Oc3ccccc3)cc2)C(=O)C1 | 0.146 µM [rising, full curve, poor fit]
36 | CCSc1cc(N2CCCC2)nc(-c2ccc(C)cc2)n1 | 23.1 µM [rising, single point]
37 | COc1cc(OC)cc(C(=O)NC(=S)Nc2ccc(NC(=O)c3ccco3)cc2)c1 | 4.11 µM [rising, partial curve]
38 | CCCCn1c(O)c(N=NC(=O)c2ccncc2)c2cc(Br)ccc21 | 8.2 µM [rising, partial curve]
39 | CCN(C(=O)COC(=O)c1cnccn1)c1cccc2ccccc12 | 9.2 µM [rising, partial curve, poor fit]
40 | CN1CCN(C(=O)C2=C[C@@H](c3coc4ccccc4c3=O)C[C@@H](OCc3ccc(CO)cc3)O2)CC1 | 6.31 µM [rising, full curve, poor fit]
41 | NC(=O)C1(N2CCCCC2)CCN(C(=O)NC23CC4CC(CC(C4)C2)C3)CC1 | 0.651 µM [rising, partial curve, poor fit]

Not a retest: an excerpt of the list.
Row | Structure (SMILES) | AC50
37 | COc1cc(OC)cc(C(=O)NC(=S)Nc2ccc(NC(=O)c3ccco3)cc2)c1 | 4.11 µM [rising, partial curve]
38 | CCCCn1c(O)c(N=NC(=O)c2ccncc2)c2cc(Br)ccc21 | 8.2 µM [rising, partial curve]

— PubChem BioAssay AID493014 (National Center for Advancing Translational Sciences (NCATS), 2011)
